Some of the results follow. The main result of the screen is listed elsewhere. These columns were measured beside it and carry no call. The list favours compounds with an active or inconclusive main result. Words in brackets tell the shape of the fitted curve; partial curves, single points and poor fits give uncertain potencies.
Assay: qHTS Assay to Find Inhibitors of Chronic Active B-Cell Receptor Signaling
Conditions: ABC-DLBCL IkBa-CBG/CBR reporter, luminescence ratio (green luciferase fused to IkBa over red control in TMD8 lymphoma cells), 4 h
Summary of the method: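 Cell line TMD8 (human ABC DLBCL), stably expressing tet-inducible CBG68-IkBa fusion and CBR; IMDM/0.5% FBS; cpd up to 46 uM; dox induction, 4 h, 37C/5% CO2; dual luminescence; green/red ratio; MG132 control.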

[1] = measured here: CBR red luminescence, cell number
[2] = measured here: IkBa-CBG green luminescence

Row | Compound | AC50 [1] | AC50 [2]
1 | COc1ccc(NC(=S)NN2CCN(C)CC2)cc1OC | 2.91 µM [rising, partial curve] | 
2 | Cc1ccc(Nc2nc3c(s2)CCC3)c(C)c1 | 2.59 µM [falling, full curve] | 
3 | Cc1ccc(NC(=O)CN2CCCC2)c2c1CC(C)(C)O2 | 3.98 µM [falling, partial curve, poor fit] | 
4 | Cc1cc(OCC(=O)N2CCc3ccccc3C2)c(C)cc1Br | 35.5 µM [falling, single point] | 
5 | Cc1ccc(C2CC(=O)NC3=C2C(=O)CCC3)cc1Br (stereo not drawn) | 5.01 µM [falling, partial curve, poor fit] | 
6 | O=[N+]([O-])c1ccc(CNCc2cc(Cl)ccc2O)cc1 | 29.1 µM [falling, single point] | 
7 | Cc1nc(NCCN2CCOCC2)c2nnn(Cc3ccccc3Cl)c2n1 | 32.6 µM [falling, single point] | 
8 | CC(C)NC(=O)c1ccc(COc2ccc(C(C)(C)C)cc2)o1 | 11.2 µM [falling, partial curve, poor fit] | 
9 | CCOc1ccccc1NC(=O)c1c(NCc2sccc2C)sc2c1CCC(C)C2 (stereo not drawn) | 11.2 µM [falling, partial curve, poor fit] | 
10 | CCOc1ccc2nc(N/C(N)=N/S(C)(=O)=O)nc(C)c2c1 | 2.24 µM [rising, partial curve] | 
11 | O=C(NCc1ccccc1)c1csc2c1CCCCC2 | 13 µM [rising, partial curve] | 
12 | O=C(Nc1ccc(Cl)cc1)N1CCC(c2ccccc2)C1 (stereo not drawn) | 10 µM [falling, partial curve, poor fit] | 
13 | O=C(Nc1ccc(Br)cc1)c1cccc(N2C(=O)C3C4C=CC(C4)C3C2=O)c1 (stereo not drawn) | 35.5 µM [falling, single point] | 
14 | CC1Cc2ccccc2N1C(=O)CSc1ncc(-c2ccc(F)cc2)n1C (stereo not drawn) | 8.2 µM [falling, partial curve] | 
15 | c1ccc2c(Nc3ccc4c(c3)OCCO4)c3c(nc2c1)CCCC3 | 35.5 µM [falling, single point] | 
16 | O=C(CN1C(=O)C(=O)N(C2CCCC2)C1=O)NCCc1ccc(Cl)cc1Cl | 23.1 µM [rising, single point] | 
17 | Cc1ccc(-c2noc(CSc3nnc(Cc4cccs4)n3-c3ccccc3)n2)cc1 | 25.9 µM [falling, single point] | 
18 | Cc1cc2c(=O)n(C)c(SCC(=O)c3cc4ccccc4o3)nc2s1 | 0.103 µM [rising, full curve, poor fit] | 
19 | Cc1[nH]c2ccccc2c1/C=N/NC(=O)c1cccc(F)c1 | 35.5 µM [falling, single point] | 
20 | CCCC[C@@H]1C=C(C(=O)O)[C@H](c2ccc(Cl)c(Cl)c2)N1S(=O)(=O)c1ccc(C)cc1 | 32.6 µM [falling, single point] | 
21 | COc1ccc(/C=N/NC(=O)c2ccc[nH]2)cc1 | 11.2 µM [falling, partial curve, poor fit] | 

Row | Compound | AC50 [1] | AC50 [2]
22 | O=c1c2ccccc2nc(COc2ccccc2)n1/N=C/c1ccco1 | 15.8 µM [falling, single point] | 
23 | CSc1nc(-c2ccc(Cl)cc2Cl)[nH]c(=O)c1C#N | 2.31 µM [rising, full curve, poor fit] | 
24 | c1ccc2nc(-c3ccncc3)ccc2c1 | 35.5 µM [rising, single point] | 
25 | O=C(CSc1ccccc1C(=O)O)Nc1cccc(C(=O)O)c1 | 15.8 µM [falling, partial curve] | 
26 | CCn1c(C)cc(/C=C2/NC(=O)N(Cc3ccccc3F)C2=O)c1C | 29.1 µM [falling, single point] | 
27 | CC(C(=O)Nc1cccc([N+](=O)[O-])c1)[n+]1ccccc1 (stereo not drawn) | 35.5 µM [falling, single point] | 
28 | COc1cc(C2=Nc3c(c(C)nn3-c3ccccc3)P(=O)(N3CCOCC3)O2)cc(OC)c1OC (stereo not drawn) | 9.2 µM [falling, single point] | 29.1 µM [rising, partial curve, poor fit]
29 | O=C(Nc1cccc(Cl)c1)c1ccc(F)c(S(=O)(=O)N2CCN(c3ccccn3)CC2)c1 | 9.2 µM [falling, partial curve] | 
30 | O=C(Nc1ccc(NC(=O)c2ccccc2Cl)nc1)c1ccncc1 | 7.94 µM [falling, partial curve, poor fit] | 
31 | Cc1cc(Br)cc2c1NC(=O)C2(O)CC(=O)c1ccco1 (stereo not drawn) |  | 22.4 µM [falling, single point]
32 | CCOc1ccc(CC(=O)NNC(=S)NC)cc1Br | 15.8 µM [rising, single point] | 
33 | CCOc1ccc(OCCC(=O)N2CCN(S(=O)(=O)c3ccc(F)cc3)CC2)cc1 | 0.013 µM [rising, full curve, poor fit] | 
34 | O=Cc1ccccc1OCc1ccc2c(c1)OCO2 | 3.55 µM [rising, single point] | 10 µM [falling, partial curve]
35 | C/C(=N/Nc1ccc(C)cc1)C1(C)N(O)C(C)(C)C(c2ccco2)=[N+]1[O-] (stereo not drawn) | 7.08 µM [rising, partial curve, poor fit] | 
36 | O=C(Cc1ccc(F)cc1)NCCc1ccc(F)cc1 | 2.31 µM [falling, single point] | 
37 | COc1cc(C(=O)N/N=C(\C)c2ccc(NC(=O)Cc3ccccc3)cc2)ccc1O | 11.2 µM [falling, partial curve] | 
38 | O=C(CN1C(=O)C2C3C=CC(C3)C2C1=O)NCCC1=CCCCC1 (stereo not drawn) | 11.6 µM [rising, partial curve, poor fit] | 
39 | Cc1cccc(C(=O)Nc2ccc(C(=O)N/N=C/c3cccc(C)n3)cc2)c1 | 14.1 µM [falling, partial curve, poor fit] | 
40 | Cc1nc2cc(-c3ccccc3)sc2c(=O)n1N | 7.08 µM [falling, partial curve] | 
41 | COc1cc(C2C(C(=O)c3ccc(C)o3)=C(O)C(=O)N2c2cc(C)on2)cc(Br)c1O (stereo not drawn) | 3.26 µM [falling, single point] | 

Reformatted field by field: entries from further up.
CCn1c(C)cc(/C=C2/NC(=O)N(Cc3ccccc3F)C2=O)c1C
  AC50 [1]: 29.1 µM [falling, single point]
CC(C(=O)Nc1cccc([N+](=O)[O-])c1)[n+]1ccccc1 (stereo not drawn)
  AC50 [1]: 35.5 µM [falling, single point]

From PubChem BioAssay AID493014 (National Center for Advancing Translational Sciences (NCATS), 2011)
